PubChem BioAssay AID504791, Drosophila RNAi Screening Center – 2011
Screen: 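Genes of the fly required for silencing by miRNA, siRNA or endo-siRNA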 (primary screen). Cell system: Drosophila S2-derived reporter cells. Reagent: long dsRNA against Drosophila genes, about 150-250 ng dsRNA per well (siRNA assay); about 80-120 ng (miRNA assay). Duration: about 5 days (siRNA assay); about 4 days (miRNA assay). Challenge: copper sulfate induction of reporters: 25 µM (siRNA assay); 200 mM stated (miRNA assay), 1-2 days before reading. Measurement: 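Per-well ratio of Renilla over firefly light, expressed relative to that plate's average ratio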. Units: stable assay Renilla, run 1 in luminescence; stable assay firefly, run 1 in luminescence. Call rule: 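First-pass picks had plate-scaled ratios over 1.5 for the siRNA assay, over 1.6 for the miRNA assay, or under 0.6; two distinct dsRNAs had to score alike on retest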.
The screen tested about 23,000 reagents; this is a random part of those that have a named target and a result. Of all reagents, 199 (0.86%) got an active call. 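Plate-scaled ratios behind the calls are not deposited; printed light signals are raw; many rows marked increased or decreased are still called inactive.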 Entries without a mark were called inactive. Reagent sequences are not shown. The record does not give: the direction of the score.

CG3919 (GeneID 39582) [DRSC10389]: stable assay Renilla, run 1 = 14802; stable assay firefly, run 1 = 3.99e5
CG17544 (GeneID 35213) [DRSC02624]: stable assay Renilla, run 1 = 68924; stable assay firefly, run 1 = 1.83e6
CG31465 (GeneID 42577) [DRSC16090]: stable assay Renilla, run 1 = 8943; stable assay firefly, run 1 = 4.48e5
Mi-2 (GeneID 40170) [DRSC11222]: stable assay Renilla, run 1 = 4892; stable assay firefly, run 1 = 3.55e5
CG3581 (GeneID 42315) [DRSC15499]: stable assay Renilla, run 1 = 7489; stable assay firefly, run 1 = 3.25e5
CG6006 (GeneID 41962) [DRSC13137]: stable assay Renilla, run 1 = 4475; stable assay firefly, run 1 = 3.19e5
CG6006 (GeneID 41962) [DRSC15946]: stable assay Renilla, run 1 = 11201; stable assay firefly, run 1 = 5.28e5
CG7304 (GeneID 39713) [DRSC10804]: stable assay Renilla, run 1 = 7486; stable assay firefly, run 1 = 2.89e5
rtp (GeneID 40627) [DRSC12132]: stable assay Renilla, run 1 = 9015; stable assay firefly, run 1 = 6.16e5
CG7031 (GeneID 42704) [DRSC16178]: stable siRNA reporter change = reporter ratio raised past the hit cutoff; stable assay Renilla, run 1 = 7306; stable assay firefly, run 1 = 2.14e5
CG7031 (GeneID 42704) [DRSC23028]: stable assay Renilla, run 1 = 5656; stable assay firefly, run 1 = 3.91e5
bond (GeneID 42657) [DRSC16135]: stable assay Renilla, run 1 = 8980; stable assay firefly, run 1 = 3.80e5
CG7309 (GeneID 34509) [DRSC03045]: stable assay Renilla, run 1 = 7055; stable assay firefly, run 1 = 3.85e5
RpL7A (GeneID 31588) [DRSC18709]: stable assay Renilla, run 1 = 4867; stable assay firefly, run 1 = 2.15e5
qvr (GeneID 2768718) [DRSC05280]: stable assay Renilla, run 1 = 5870; stable assay firefly, run 1 = 3.47e5
Taf13 (GeneID 35297) [DRSC02106]: stable assay Renilla, run 1 = 6002; stable assay firefly, run 1 = 3.93e5
Spn (GeneID 46194) [DRSC07986]: stable assay Renilla, run 1 = 5883; stable assay firefly, run 1 = 3.45e5
Spn (GeneID 46194) [DRSC08490]: stable assay Renilla, run 1 = 10214; stable assay firefly, run 1 = 3.28e5
Spn (GeneID 46194) [DRSC08491]: stable assay Renilla, run 1 = 5127; stable assay firefly, run 1 = 2.91e5
